From article PMC4482762
Changes are numbered by the printed parent chain. These are yes or no findings as the source states them, for the method shown. In cells and extracts the contact can be indirect. Binding can be weak; no strength is given. Where a sequence is shown, tags or fusion partners need not be part of it.

Assays:
Experiment in all cases: co-IP; GFP-Trap: lysates of Hek293 cells transfected with YFP-R6 forms, 2 mg of supernatant with GFP-Trap_A beads 10 min at 4°C (25 mM Tris-HCl pH 7.5, 150 mM NaCl, 0.5% NP-40); endogenous partners found by Western blotting
[1] = biological target: T1, YFP-R6 wild type (PPP1R3D) (human) (UniProt O95685)
T1 sequence: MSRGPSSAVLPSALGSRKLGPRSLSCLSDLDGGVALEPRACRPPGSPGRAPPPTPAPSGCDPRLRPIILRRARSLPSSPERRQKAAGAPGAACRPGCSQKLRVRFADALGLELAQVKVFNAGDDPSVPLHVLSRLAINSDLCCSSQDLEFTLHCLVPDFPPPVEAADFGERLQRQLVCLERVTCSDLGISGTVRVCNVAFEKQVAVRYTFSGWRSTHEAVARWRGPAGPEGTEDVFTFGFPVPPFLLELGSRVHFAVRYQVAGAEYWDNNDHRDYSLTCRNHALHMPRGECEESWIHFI

[2] = biological target: T2, YFP-R6 WDNAD (N270A) (human) (UniProt O95685)
T2 sequence: T1 sequence with N270A

[3] = biological target: T3, YFP-R6 RARA (V103A-F105A) (human) (UniProt O95685)
T3 sequence: T1 sequence with V103A, F105A

[4] = biological target: T4, YFP-R6 S74A (human) (UniProt O95685)
T4 sequence: T1 sequence with S74A

[5] = biological target: T5, YFP-R6 S25A (human) (UniProt O95685)
T5 sequence: T1 sequence with S25A

| binding [1] | binding [2] | binding [3] | binding [4] | binding [5] | Substance |
| --- | --- | --- | --- | --- | --- |
| binds | binds | binds | binds | binds | endogenous glycogen phosphorylase (GP) (human (endogenous in Hek293)) (enzyme) |
| binds | binds | binds | binds | binds | endogenous glycogen synthase (GS) (human (endogenous in Hek293)) (enzyme) |
